## Primary screen of a compound library

Data taken from ChEMBL document CHEMBL3988442, “University of Dundee, Small-Polar-MMV Screening Library” (2021).

Each number is a percent effect as filed.
How 0% and 100% were set is not recorded. Most values in the screen are low, and negative values occur.
This is an unselected part of the compounds tested.
Two or more numbers in one place are separate tests of the same structure; such repeats can differ widely.

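Viability assay of Plasmodium falciparum sporozoites; the read-out is not stated. The concentration is filed as 10 mM, unlikely as a test dose, so the dose is not known. Direction is inferred from retests: higher values go with lower viability. Strong results were mostly tested again. Size under these conditions: about 34,000 compounds, about 280 of them at 50% or above in at least one test.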

{"compound": "[H][C@@]12COC[C@]1([H])[C@@H](OCc1cccnc1)CN2C(=O)C1CCOCC1", "Percent Effect": 8.333}
{"compound": "CC1CN(CC(=O)NCc2cccs2)CCN1c1nccs1", "stereo": "stereo not given", "Percent Effect": 3.117}
{"compound": "O=C(O)C(F)(F)F.O=C(O)C(F)(F)F.[H][C@@]12CN(Cc3cccs3)C[C@]1([H])C(=O)N(CCN1CCCC1)C2", "Percent Effect": 10.95}
{"compound": "O=S(=O)(NC1CCOC1)c1ccc(C(F)(F)F)nc1", "stereo": "stereo not given", "Percent Effect": 7.353}
{"compound": "CCn1c(C(=O)N2CCN(CC[S+](C)[O-])CC2)cc2ccccc21", "stereo": "stereo not given", "Percent Effect": 7.535}
{"compound": "NC(=O)C1CCN(c2nc3nccc(-c4ccccc4)c3c(=O)[nH]2)CC1", "Percent Effect": -5.706}
{"compound": "CCOC(=O)N1CCN(C(=O)CCn2cccc2)CC1", "Percent Effect": -6.449}
{"compound": "CC(=O)N1CC2(CCN(c3nccc4ccccc34)CC2)CC1C(=O)O", "stereo": "stereo not given", "Percent Effect": -10.31}
{"compound": "CCN1CC(C(=O)N2CCN(CCn3cccc3)CC2)CC1=O", "stereo": "stereo not given", "Percent Effect": -2.959}
{"compound": "O=S(=O)(Cc1cccc(F)c1)Nc1cc(Cl)ccn1", "Percent Effect": "16.84 and 23.8"}
{"compound": "COc1ccc(-n2cccn2)cc1S(=O)(=O)N1C[C@H](C2CC2)[C@@H](N)C1", "Percent Effect": -18.92}
{"compound": "Cn1nc(C(C)(C)C)cc1NC(=O)Cn1ccnc1", "Percent Effect": -1.077}
{"compound": "CCn1cnnc1CNC(=O)NC(C)c1ccccn1", "stereo": "stereo not given", "Percent Effect": 8.64}
{"compound": "COCc1nccc(C2CCCN(Cc3ccc(C#N)cc3)C2)n1", "stereo": "stereo not given", "Percent Effect": -17.6}
{"compound": "CCc1nnsc1C(=O)NCCc1nnc2n1CCC2", "Percent Effect": -1.404}
{"compound": "[H][C@]12CCN(Cc3cccs3)[C@@]1([H])C[C@H](C(=O)N1CCOCC1)O2", "Percent Effect": -4.332}
{"compound": "O=C(O)C(F)(F)F.[H][C@@]12CN(Cc3cccs3)C[C@@]1([H])N(CC1CC1)C(=O)CO2", "Percent Effect": -15.1}
{"compound": "Cc1cn(-c2ccccc2)nc1NS(=O)(=O)c1cc(C(=O)O)cs1", "Percent Effect": 6.966}
{"compound": "CCNc1nc(-c2cccnc2)c(-c2ccnc(NCCO)n2)s1", "Percent Effect": 4.318}
{"compound": "CN1CCCN(c2ncnc(N3CCOCC3)c2N)CC1", "Percent Effect": -10.94}
{"compound": "CC(C)c1nc2n(n1)CC(NCc1nc(C3CC3)no1)CC2", "stereo": "stereo not given", "Percent Effect": 8.371}
{"compound": "N#Cc1ccccc1C(=O)N1C[C@@H](CN2CCOCC2)[C@@H](CO)C1", "Percent Effect": 10.09}
{"compound": "[H][C@]12C[C@H](NC(=O)c3ccnn3C)[C@@]1([H])CN(S(=O)(=O)c1ccc(C)cc1)C2", "Percent Effect": -8.412}
{"compound": "Cc1nc(CN(C)C2CCN(Cc3c(C)noc3C)C2)no1", "stereo": "stereo not given", "Percent Effect": 1.338}
{"compound": "O=C(O)CC(O)(CC(=O)O)C(=O)O.[H][C@]12CC[C@](O)(c3ccccn3)[C@@]1([H])CN(Cc1cccc3ncccc13)C2", "Percent Effect": 0.5924}
{"compound": "CCC1(C)Cc2ccccc2-c2nc(NCCO)nc(O)c21", "stereo": "stereo not given", "Percent Effect": 2.816}
{"compound": "CN1C(=O)C2(CC(=O)Nc3[nH]ncc32)c2cc(Cl)ccc21", "stereo": "stereo not given", "Percent Effect": 1.907}
{"compound": "O=C(O)C(F)(F)F.[H][C@@]12C[C@H](C(=O)NCc3cccnc3)[C@@]([H])(CN(C(=O)NC)C1)O2", "Percent Effect": 11.68}
{"compound": "[H][C@@]12CS(=O)(=O)C[C@]1([H])N(C(=O)N(C)C)CCN2Cc1ccccc1", "Percent Effect": -14.24}
{"compound": "O=C(CCCc1nnc(-c2ccccc2)o1)N1CCC1", "Percent Effect": 1.801}
{"compound": "Cc1noc(C)c1CCC(=O)NC(C)c1nnc2n1CCC2", "stereo": "stereo not given", "Percent Effect": -3.23}
{"compound": "Cc1cc(C)n(C2CN(Cc3noc(-c4ccccc4)n3)C2)n1", "Percent Effect": 1.527}
{"compound": "CC(C)(C)NC(=O)CNC(=O)CCc1ccccc1Br", "Percent Effect": -11.65}
{"compound": "NC(=O)NCCC(=O)NCc1cccnc1N1CCc2ccccc2C1", "Percent Effect": -9.458}
{"compound": "Cc1cc(-c2ccc(=O)n(C3CCN(S(=O)(=O)N(C)C)CC3)n2)c(C)o1", "Percent Effect": 2.366}
{"compound": "O=C(NCc1cc[nH]n1)NCC(c1ccccc1Cl)N1CCCC1", "stereo": "stereo not given", "Percent Effect": -18.69}
{"compound": "OC(CNCCn1cccn1)c1cccc(Br)c1", "stereo": "stereo not given", "Percent Effect": 5.061}
{"compound": "CS(=O)(=O)N1CCCC(Cc2ccnc(Nc3ccccn3)c2)C1", "stereo": "stereo not given", "Percent Effect": 4.889}
{"compound": "COc1cc(C2Nc3cc(Cl)ccc3C3=NCCN32)ccc1O", "stereo": "stereo not given", "Percent Effect": -3.325}
{"compound": "CCc1ccccc1C(=O)N1C[C@@H](CN2CCOCC2)[C@@H](CO)C1", "Percent Effect": 9.386}
{"compound": "CN(CC(=O)N1CCCCC1c1nccs1)C1CC1", "stereo": "stereo not given", "Percent Effect": 8.238}
{"compound": "COc1ccccc1OCCN1CCC(N2CCNC2=O)CC1", "Percent Effect": 2.423}
{"compound": "O=C(O)C(F)(F)F.O=C(O)C(F)(F)F.[H][C@@]12CCN(c3ccccc3)C[C@]1([H])[C@H](C(=O)Nc1cccnc1C)CCO2", "Percent Effect": -12.93}
{"compound": "Cc1nc(C)n(CC2CCCN(Cc3ccc(F)cc3C#N)C2)n1", "stereo": "stereo not given", "Percent Effect": 10.68}
{"compound": "c1ccc(Oc2ccc(CNCC3CNc4ccnn4C3)cn2)cc1", "stereo": "stereo not given", "Percent Effect": -2.407}
{"compound": "Cc1nc(C)n(CC2CCCN(CC(=O)Nc3cc(C)on3)C2)n1", "stereo": "stereo not given", "Percent Effect": 13.12}
{"compound": "O=C(NCCc1ccncc1)c1cccc(S(=O)(=O)N[C@@H]2CCNC2)c1", "Percent Effect": -17.7}
{"compound": "NC(=O)C1CCN(C(=O)NCc2cccnc2OC2CCCC2)C1", "stereo": "stereo not given", "Percent Effect": 13.54}
{"compound": "CCc1noc(C(C)N2CCN(CCOCC(F)(F)F)CC2)n1", "stereo": "stereo not given", "Percent Effect": -0.983}
{"compound": "Cc1cc(N2CCN(C3CCOCC3)CC(C(=O)N(C)C)C2)ncn1", "stereo": "stereo not given", "Percent Effect": 9.942}
{"compound": "Cc1cnn(CCNCc2nc(COc3ccc(F)cc3)no2)c1", "Percent Effect": 12.7}
{"compound": "[H][C@]12CC[C@]([H])(CN(CC(=O)N(C)C)C1)N(C(=O)CCn1cncn1)C2", "Percent Effect": -5.529}

For reference, 5 entries once more:

{"compound": "CCc1nnsc1C(=O)NCCc1nnc2n1CCC2", "Percent Effect": -1.404}
{"compound": "Cc1cc(-c2ccc(=O)n(C3CCN(S(=O)(=O)N(C)C)CC3)n2)c(C)o1", "Percent Effect": 2.366}
{"compound": "Cc1cc(N2CCN(C3CCOCC3)CC(C(=O)N(C)C)C2)ncn1", "stereo": "stereo not given", "Percent Effect": 9.942}
{"compound": "CCNc1nc(-c2cccnc2)c(-c2ccnc(NCCO)n2)s1", "Percent Effect": 4.318}
{"compound": "O=C(O)C(F)(F)F.O=C(O)C(F)(F)F.[H][C@@]12CCN(c3ccccc3)C[C@]1([H])[C@H](C(=O)Nc1cccnc1C)CCO2", "Percent Effect": -12.93}